For four molecules, binding results are on record in paper doi:10.1101/2022.08.17.504273.

Sequences of proteins named here, by UniProt entry; tags and fusion partners are left off. Residues count along the entry.
UniProt Q14203, residues 350-547: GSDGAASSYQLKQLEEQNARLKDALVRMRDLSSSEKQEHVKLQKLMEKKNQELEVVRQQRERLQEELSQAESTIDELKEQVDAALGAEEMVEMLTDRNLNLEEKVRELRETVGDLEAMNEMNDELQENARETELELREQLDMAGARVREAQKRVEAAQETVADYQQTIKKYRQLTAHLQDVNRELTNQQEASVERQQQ

These are yes or no findings as the source states them, for the method shown. For some assays here: Sequences can lack the tags named with a protein.

Assay [1] addresses GST-CC1B (GST-Psc-DCTN1(residues 350-547)-GFP-6xHis) (human (by the printed UniProt entry)) (UniProt Q14203). The assay can be described thus: pull-down.
The target in assay [2] is WD40-SNAP (LIS1 residues 90-410) (human) (UniProt P43034). Kind of assay: SEC-MALS. For orientation: Size exclusion chromatography separates by hydrodynamic size, large species first.
The target of assay [3] is T1, GST-JIP3^563–585 (JIP3^helix construct) (human) (UniProt Q9UPT6).
T1 sequence: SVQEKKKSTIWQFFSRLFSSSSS
Kind of assay: pull-down.

B1: LIS1^mut (protein, UniProt P43034 1-410)
chain: MVASQEARDELNRAIADYLRSNGYEEAYSVFKKEAELDVNEELDKEYAGLLEEEWAAVAELAEEVMELRSKLNEAKEEFTSGGPLGQKRDPKEWIPRPPEKYALSGHRSPVTRVIFHPVFSVMVSASEDATIKVWDYETGDFERTLKGHTDSVQDISFDHSGKLLASCSADMTIKLWDFQGFECIRTMHGHDHNVSSVAIMPNGDHIVSASRDKTIKMWEVQTGYCVKTFTGHREWVRMVRPNQDGTLIASCSNDQTVRVWVVATKECKAELREHEHVVECISWAPESSYSSISEATGSETKKSGKPGPFLLSGSRDKTIKMWDVSTGMCLMTLVGHDNWVRGVLFHSGGKFILSCADDKTLRVWDYKNKRCMKTLNAHEHFVTSLDFHKTAPYVVTGSVDQTVKVWECR
On to B1, for which the binding entry in assay [1] was “no binding”.

B2: WD40-SNAP (LIS1 residues 90-410) (domain or fragment, UniProt P43034 90-410)
chain: DPKEWIPRPPEKYALSGHRSPVTRVIFHPVFSVMVSASEDATIKVWDYETGDFERTLKGHTDSVQDISFDHSGKLLASCSADMTIKLWDFQGFECIRTMHGHDHNVSSVAIMPNGDHIVSASRDKTIKMWEVQTGYCVKTFTGHREWVRMVRPNQDGTLIASCSNDQTVRVWVVATKECKAELREHEHVVECISWAPESSYSSISEATGSETKKSGKPGPFLLSGSRDKTIKMWDVSTGMCLMTLVGHDNWVRGVLFHSGGKFILSCADDKTLRVWDYKNKRCMKTLNAHEHFVTSLDFHKTAPYVVTGSVDQTVKVWECR
Take B2: the binding entry in assay [2] is reported as “no binding (tested: 1 mg/mL)”; in assay [1], “no binding”.

B3: JIP3 1-108_V60Q (RH1-domain mutant) (domain or fragment, UniProt Q9ESN9-5 1-108)
chain: MMEIQMDEGGGVVVYQDDYCSGSVMSERVSGLAGSIYREFERLIHCYDEEVVKELMPLVQNVLENLDSVLSENQEHEVELELLREDNEQLLTQYEREKALRKQAEEKF
As to B3, the binding entry in assay [3] is reported as “no binding”.

B4: GCN4-WD40-SNAP (protein, UniProt P43034 81-410)
chain: GSGSVKQLEDKVEELLSKNAHLENEVARLKKLVSGGPLGQKRDPKEWIPRPPEKYALSGHRSPVTRVIFHPVFSVMVSASEDATIKVWDYETGDFERTLKGHTDSVQDISFDHSGKLLASCSADMTIKLWDFQGFECIRTMHGHDHNVSSVAIMPNGDHIVSASRDKTIKMWEVQTGYCVKTFTGHREWVRMVRPNQDGTLIASCSNDQTVRVWVVATKECKAELREHEHVVECISWAPESSYSSISEATGSETKKSGKPGPFLLSGSRDKTIKMWDVSTGMCLMTLVGHDNWVRGVLFHSGGKFILSCADDKTLRVWDYKNKRCMKTLNAHEHFVTSLDFHKTAPYVVTGSVDQTVKVWECR
Turning to B4, in assay [1], the binding result was “no binding”.
